The list shows a part of the results.
Legend:
Experiment in all cases: log2 fold change, soluble protein after heating vs DMSO (PISA); higher = thermal stabilisation; K562 lysate, 10 uM; active = over 0.2 and 3.5 SD of the protein, either way, in both replicates (recomputed)
[1] = compound: C1=CC=C(C=C1)[C@H](COC2=CC3=C(C=C2)NC(=O)N3)NC(=O)C4=CC=CN(C4=O)CC5=CC(=C(C=C5)F)F
Procedure, shortened: (§1)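 Pellets of K562 cells were dounce-homogenised in PBS pH 7.4 with 1 mM MgCl2, and the crude extract was held at 1 mg/mL protein for a 30 min treatment with 10 μM compound. Aliquots were heated for 3 min over 48°C-58°C and pooled before NP-40 was added to 0.5% at 4°C. The supernatant from 21,000xg for 90 min was quantified by TMTpro 16plex LC-MS/MS with channel sums equalised. Values are reported from duplicates as log-two fold change in thermal stability relative to solvent controls.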

Protein sequences, listed by entry. Tags and fused reporters are not part of them. Lines headed by an entry give the natural chain unless they say otherwise; changes in a name come on top.
UniProt Q8IZ73: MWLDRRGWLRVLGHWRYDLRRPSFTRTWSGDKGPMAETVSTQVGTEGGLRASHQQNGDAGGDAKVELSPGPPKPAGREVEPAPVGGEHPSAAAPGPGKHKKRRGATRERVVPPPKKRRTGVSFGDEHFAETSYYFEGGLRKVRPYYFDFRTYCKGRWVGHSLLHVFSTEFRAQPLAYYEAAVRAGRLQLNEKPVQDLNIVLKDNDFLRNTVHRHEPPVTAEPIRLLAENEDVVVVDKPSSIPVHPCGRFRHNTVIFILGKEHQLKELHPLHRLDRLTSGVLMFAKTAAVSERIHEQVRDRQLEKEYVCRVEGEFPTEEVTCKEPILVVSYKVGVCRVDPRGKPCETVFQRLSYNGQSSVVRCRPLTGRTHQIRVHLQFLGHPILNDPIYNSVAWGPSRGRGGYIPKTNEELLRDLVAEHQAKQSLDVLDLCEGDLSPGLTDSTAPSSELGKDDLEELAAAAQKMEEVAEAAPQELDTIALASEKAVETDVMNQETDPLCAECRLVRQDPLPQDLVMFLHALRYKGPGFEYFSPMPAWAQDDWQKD
UniProt Q9Y224: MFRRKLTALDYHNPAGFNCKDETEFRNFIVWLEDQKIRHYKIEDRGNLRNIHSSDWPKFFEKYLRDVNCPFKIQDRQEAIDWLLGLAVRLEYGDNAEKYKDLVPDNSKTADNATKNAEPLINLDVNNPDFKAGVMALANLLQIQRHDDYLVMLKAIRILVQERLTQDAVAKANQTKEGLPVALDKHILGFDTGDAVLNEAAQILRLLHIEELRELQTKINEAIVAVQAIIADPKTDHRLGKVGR
UniProt Q9NQC3: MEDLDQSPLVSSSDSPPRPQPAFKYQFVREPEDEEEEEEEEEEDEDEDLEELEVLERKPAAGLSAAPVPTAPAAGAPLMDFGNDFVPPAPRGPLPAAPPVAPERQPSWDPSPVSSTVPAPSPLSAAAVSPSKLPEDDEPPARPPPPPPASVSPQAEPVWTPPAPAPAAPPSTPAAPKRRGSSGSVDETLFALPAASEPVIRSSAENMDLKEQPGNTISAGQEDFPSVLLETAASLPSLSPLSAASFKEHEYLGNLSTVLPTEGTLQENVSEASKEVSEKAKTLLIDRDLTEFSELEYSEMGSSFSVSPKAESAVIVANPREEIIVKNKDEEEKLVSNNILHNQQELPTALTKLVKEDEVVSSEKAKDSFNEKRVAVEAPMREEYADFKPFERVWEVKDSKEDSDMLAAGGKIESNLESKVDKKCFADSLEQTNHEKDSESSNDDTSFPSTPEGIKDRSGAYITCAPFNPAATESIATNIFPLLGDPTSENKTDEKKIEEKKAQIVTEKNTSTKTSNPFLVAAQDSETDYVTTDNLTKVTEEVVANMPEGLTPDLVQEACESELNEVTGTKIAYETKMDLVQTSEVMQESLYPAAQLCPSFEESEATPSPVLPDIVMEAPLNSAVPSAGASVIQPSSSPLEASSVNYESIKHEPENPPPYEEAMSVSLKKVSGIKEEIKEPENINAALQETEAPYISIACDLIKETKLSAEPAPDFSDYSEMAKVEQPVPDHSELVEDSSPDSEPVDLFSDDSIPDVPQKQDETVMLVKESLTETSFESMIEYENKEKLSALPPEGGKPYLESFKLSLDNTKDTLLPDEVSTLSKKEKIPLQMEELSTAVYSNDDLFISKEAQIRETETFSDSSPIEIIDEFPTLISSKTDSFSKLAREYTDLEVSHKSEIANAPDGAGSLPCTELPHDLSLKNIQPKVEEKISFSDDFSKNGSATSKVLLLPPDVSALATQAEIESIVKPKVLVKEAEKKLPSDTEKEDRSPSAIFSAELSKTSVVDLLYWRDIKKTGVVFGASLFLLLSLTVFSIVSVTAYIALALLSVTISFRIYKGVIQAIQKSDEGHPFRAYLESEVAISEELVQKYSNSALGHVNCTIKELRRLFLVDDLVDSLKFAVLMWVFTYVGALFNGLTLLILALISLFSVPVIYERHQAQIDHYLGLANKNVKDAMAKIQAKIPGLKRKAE
UniProt Q96S38: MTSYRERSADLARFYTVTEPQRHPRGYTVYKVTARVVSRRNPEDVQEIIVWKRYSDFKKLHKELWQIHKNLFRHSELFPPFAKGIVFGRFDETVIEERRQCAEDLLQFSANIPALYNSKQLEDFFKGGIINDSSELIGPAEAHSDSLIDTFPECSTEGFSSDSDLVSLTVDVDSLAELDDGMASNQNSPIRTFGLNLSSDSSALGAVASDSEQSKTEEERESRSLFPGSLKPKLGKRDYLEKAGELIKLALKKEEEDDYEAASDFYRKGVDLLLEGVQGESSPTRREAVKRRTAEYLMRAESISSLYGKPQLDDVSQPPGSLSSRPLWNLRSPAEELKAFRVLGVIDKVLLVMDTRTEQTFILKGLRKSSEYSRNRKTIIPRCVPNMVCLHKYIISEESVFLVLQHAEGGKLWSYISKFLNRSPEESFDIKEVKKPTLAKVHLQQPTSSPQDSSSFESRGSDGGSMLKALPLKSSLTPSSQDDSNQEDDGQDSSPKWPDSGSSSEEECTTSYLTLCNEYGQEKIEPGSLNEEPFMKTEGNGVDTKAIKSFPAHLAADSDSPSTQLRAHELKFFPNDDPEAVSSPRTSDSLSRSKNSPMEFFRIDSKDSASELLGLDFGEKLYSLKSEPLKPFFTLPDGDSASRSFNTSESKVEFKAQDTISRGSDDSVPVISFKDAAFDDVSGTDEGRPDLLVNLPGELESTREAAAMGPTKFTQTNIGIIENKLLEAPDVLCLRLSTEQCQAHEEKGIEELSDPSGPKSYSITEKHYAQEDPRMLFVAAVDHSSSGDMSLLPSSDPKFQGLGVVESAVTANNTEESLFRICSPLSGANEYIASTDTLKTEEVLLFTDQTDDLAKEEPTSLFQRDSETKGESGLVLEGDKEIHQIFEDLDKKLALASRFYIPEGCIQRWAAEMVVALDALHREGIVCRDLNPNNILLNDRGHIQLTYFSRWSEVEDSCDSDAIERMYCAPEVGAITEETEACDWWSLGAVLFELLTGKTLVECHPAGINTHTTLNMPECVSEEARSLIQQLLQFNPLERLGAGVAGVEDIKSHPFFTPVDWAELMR
UniProt P23921: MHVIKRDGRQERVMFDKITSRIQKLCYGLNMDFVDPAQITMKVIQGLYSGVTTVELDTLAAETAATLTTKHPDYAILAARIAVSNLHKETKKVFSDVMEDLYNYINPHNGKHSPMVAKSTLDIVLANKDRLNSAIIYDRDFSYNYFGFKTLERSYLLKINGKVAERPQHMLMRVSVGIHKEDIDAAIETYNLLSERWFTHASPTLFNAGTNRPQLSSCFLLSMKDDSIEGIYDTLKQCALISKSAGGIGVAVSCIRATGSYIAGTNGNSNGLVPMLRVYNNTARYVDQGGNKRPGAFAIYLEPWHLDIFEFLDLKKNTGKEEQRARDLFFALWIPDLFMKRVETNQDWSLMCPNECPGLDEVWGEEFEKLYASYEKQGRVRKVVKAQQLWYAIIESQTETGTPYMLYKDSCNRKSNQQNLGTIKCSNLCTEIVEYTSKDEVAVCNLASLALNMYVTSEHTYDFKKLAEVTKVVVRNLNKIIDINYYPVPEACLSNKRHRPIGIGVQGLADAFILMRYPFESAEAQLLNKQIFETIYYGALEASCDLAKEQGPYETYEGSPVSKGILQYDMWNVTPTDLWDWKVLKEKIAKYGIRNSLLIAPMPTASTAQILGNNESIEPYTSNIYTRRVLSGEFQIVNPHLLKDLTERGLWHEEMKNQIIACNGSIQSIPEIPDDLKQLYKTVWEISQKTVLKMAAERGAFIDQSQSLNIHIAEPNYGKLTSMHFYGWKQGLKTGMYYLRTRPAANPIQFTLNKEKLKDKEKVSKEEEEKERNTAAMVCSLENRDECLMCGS
UniProt P57060: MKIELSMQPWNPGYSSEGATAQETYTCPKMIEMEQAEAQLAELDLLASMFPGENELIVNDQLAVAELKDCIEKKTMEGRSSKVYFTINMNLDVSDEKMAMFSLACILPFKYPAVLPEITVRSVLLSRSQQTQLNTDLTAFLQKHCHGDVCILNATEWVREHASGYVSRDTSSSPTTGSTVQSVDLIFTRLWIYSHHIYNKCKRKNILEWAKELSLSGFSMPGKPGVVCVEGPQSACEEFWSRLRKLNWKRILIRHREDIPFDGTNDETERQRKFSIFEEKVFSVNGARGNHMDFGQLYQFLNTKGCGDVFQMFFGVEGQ
UniProt Q92766: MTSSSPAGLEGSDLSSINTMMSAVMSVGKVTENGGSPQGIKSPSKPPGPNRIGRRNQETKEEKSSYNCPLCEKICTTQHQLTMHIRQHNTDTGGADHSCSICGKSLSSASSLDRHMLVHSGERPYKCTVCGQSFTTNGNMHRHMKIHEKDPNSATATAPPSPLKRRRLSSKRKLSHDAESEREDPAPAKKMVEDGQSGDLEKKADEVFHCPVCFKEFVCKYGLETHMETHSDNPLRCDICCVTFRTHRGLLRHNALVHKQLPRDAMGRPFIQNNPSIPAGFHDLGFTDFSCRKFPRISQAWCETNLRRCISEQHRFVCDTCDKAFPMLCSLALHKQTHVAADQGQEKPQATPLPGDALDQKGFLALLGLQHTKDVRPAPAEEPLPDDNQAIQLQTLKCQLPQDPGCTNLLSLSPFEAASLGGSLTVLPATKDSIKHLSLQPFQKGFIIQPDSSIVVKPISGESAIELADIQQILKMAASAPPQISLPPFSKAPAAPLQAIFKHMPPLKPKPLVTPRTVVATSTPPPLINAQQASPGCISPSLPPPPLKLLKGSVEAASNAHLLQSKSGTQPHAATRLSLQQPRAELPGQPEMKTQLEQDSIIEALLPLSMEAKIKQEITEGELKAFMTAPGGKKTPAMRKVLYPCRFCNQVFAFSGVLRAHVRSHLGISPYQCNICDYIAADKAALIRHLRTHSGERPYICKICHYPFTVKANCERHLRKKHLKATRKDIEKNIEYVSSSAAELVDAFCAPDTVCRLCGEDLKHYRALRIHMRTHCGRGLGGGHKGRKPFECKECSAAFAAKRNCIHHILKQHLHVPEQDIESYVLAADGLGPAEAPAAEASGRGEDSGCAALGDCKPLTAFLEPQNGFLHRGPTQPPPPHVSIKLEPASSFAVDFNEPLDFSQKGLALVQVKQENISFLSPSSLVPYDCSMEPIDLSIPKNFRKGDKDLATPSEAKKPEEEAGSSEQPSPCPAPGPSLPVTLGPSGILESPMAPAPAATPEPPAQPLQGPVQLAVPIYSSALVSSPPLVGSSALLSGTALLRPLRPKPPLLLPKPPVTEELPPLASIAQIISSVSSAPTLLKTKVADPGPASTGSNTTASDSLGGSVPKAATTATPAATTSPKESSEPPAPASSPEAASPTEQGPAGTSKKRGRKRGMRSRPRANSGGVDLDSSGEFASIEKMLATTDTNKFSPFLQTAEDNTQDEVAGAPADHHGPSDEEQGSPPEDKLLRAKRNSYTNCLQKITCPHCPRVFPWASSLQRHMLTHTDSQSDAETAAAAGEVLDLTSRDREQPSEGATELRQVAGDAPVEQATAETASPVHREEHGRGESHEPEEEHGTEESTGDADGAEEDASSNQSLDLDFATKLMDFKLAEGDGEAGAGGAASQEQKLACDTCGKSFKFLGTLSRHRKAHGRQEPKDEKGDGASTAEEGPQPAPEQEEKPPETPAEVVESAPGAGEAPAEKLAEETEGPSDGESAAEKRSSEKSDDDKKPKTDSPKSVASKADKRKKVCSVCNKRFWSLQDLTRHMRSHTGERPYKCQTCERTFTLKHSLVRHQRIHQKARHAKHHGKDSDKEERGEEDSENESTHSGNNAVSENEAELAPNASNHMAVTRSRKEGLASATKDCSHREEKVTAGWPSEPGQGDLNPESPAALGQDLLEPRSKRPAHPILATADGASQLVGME
UniProt P78345: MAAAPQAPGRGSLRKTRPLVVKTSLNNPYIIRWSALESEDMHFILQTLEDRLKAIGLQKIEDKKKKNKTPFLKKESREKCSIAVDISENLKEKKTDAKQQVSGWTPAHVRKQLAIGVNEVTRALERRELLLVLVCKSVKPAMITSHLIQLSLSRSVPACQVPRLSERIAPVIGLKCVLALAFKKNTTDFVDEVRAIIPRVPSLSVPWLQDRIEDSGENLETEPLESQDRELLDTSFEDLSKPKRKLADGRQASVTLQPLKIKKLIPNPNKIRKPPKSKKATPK
UniProt O43159: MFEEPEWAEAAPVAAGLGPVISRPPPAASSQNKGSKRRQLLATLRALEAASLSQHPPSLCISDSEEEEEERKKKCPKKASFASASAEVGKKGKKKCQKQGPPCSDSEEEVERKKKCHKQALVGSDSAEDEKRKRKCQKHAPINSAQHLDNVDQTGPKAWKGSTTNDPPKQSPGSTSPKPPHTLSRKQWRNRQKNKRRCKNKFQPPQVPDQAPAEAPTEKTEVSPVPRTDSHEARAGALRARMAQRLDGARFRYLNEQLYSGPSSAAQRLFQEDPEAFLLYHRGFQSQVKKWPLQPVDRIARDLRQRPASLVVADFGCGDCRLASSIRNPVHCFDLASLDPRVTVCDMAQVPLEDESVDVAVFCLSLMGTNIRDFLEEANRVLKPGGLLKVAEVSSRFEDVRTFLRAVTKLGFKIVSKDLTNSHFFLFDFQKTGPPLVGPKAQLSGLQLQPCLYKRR

[2] = compound: CC1=C(SC2=C1C(=N[C@H](C3=NN=C(N32)C)CC(=O)N)C4=CC=C(C=C4)Cl)C
Procedure, shortened: as §1

[3] = compound: CC1=C2C(=CC=C1)N=C(N(C2=O)C3=CC=CC=C3C)CN4C=NC5=C(N=CN=C54)N
Procedure, shortened: as §1

[4] = compound: Cc1sc2c(c1C)C(c1ccc(Cl)cc1)=N[C@@H](CC(=O)OC(C)(C)C)c1nnc(C)n1-2
Procedure, shortened: as §1

[5] = compound: c1ccc([C@@H]2C[C@H]2NC2CCNCC2)cc1
Procedure, shortened: as §1

Measured: log2 fold change

RPUSD2 (UniProt Q8IZ73)
inactive: [1] 0.008 | [2] 0.011 | [3] 0.036 | [4] 0 | [5] -0.022

RTN3 isoform 5 (UniProt O95197)
inactive: [1] -0.083 | [2] 0.064 | [3] -0.083 | [4] -0.007 | [5] 0.152

RTRAF (UniProt Q9Y224)
inactive: [1] -0.009 | [2] -0.103 | [3] 0.019 | [4] -0.003 | [5] -0.014

RTN4 isoform 2 (UniProt Q9NQC3)
inactive: [1] -0.028 | [2] 0.106 | [3] 0.017 | [4] -0.043 | [5] -0.035

RPS6KC1 (UniProt Q96S38)
inactive: [1] -0.009 | [2] -0.004 | [3] 0.056 | [4] 0.033 | [5] -0.02

RPS15 (UniProt P62841)
inactive: [1] 0.026 | [2] 0.037 | [3] -0.004 | [4] -0.017 | [5] -0.07

RRM1 (UniProt P23921)
inactive: [1] 0.014 | [2] 0.028 | [3] 0.042 | [4] 0.028 | [5] 0.004

RRBP1 isoform 3 (UniProt Q9P2E9)
inactive: [1] 0.188 | [2] 0.005 | [3] 0.098 | [4] -0.026

Copied from above (2 entries):
RRM1 (UniProt P23921)
inactive: [1] 0.014 | [2] 0.028 | [3] 0.042 | [4] 0.028 | [5] 0.004

RRBP1 isoform 3 (UniProt Q9P2E9)
inactive: [1] 0.188 | [2] 0.005 | [3] 0.098 | [4] -0.026

The list goes on.

RWDD2B (UniProt P57060)
inactive: [1] 0.179 | [2] -0.125 | [3] -0.042 | [4] -0.033

RUBCN (UniProt Q92622)
inactive: [1] -0.035 | [2] -0.026 | [3] -0.072 | [4] 0.03 | [5] 0.051

RPUSD4 (UniProt Q96CM3)
inactive: [1] -0.004 | [2] 0.018 | [3] 0.005 | [4] -0.054 | [5] 0.011

RSRC1 (UniProt Q96IZ7)
inactive: [1] -0.009 | [2] 0.004 | [3] 0.032 | [4] 0.008 | [5] 0.015

RREB1 isoform 2 (UniProt Q92766)
inactive: [1] 0.008 | [2] 0.05 | [3] 0.084 | [4] 0.043 | [5] 0.058

RPP38 (UniProt P78345)
inactive: [1] 0.026 | [2] -0.001 | [3] 0.014 | [4] -0.016 | [5] -0.048

RPS7, A0A2R8Y623
inactive: [1] -0.016 | [2] 0.069 | [3] 0.021 | [4] -0.01

RPL6 (UniProt Q02878)
inactive: [1] -0.001 | [2] 0 | [3] -0.022 | [4] 0.027 | [5] 0.032

RRAS (UniProt P10301)
inactive: [1] -0.044 | [2] 0.037 | [3] 0.026 | [4] -0.028 | [5] 0.009

RPL7A (UniProt P62424)
inactive: [1] 0.013 | [2] 0.017 | [3] 0.015 | [4] 0.013 | [5] 0.013

RRP8 (UniProt O43159)
inactive: [1] 0.062 | [2] 0.053 | [3] 0.119 | [4] -0.017 | [5] 0.124

RPS16 (UniProt P62249)
inactive: [1] -0.006 | [2] 0.016 | [3] 0.003 | [4] -0.008 | [5] 0.055

RPS3 (UniProt P23396)
inactive: [1] -0.009 | [2] 0.021 | [3] -0.022 | [4] 0.033 | [5] 0.039

RPS26 (UniProt P62854)
inactive: [1] 0.047 | [2] -0.011 | [3] -0.09 | [4] -0.032 | [5] -0.001

RPL36A (UniProt P83881)
inactive: [1] -0.04 | [2] -0.001 | [3] -0.018 | [4] -0.011 | [5] 0.01

RPS3A (UniProt P61247)
inactive: [1] -0.014 | [2] 0.005 | [3] -0.033 | [4] 0.037 | [5] 0.012

RPS20 isoform 2 (UniProt P60866)
inactive: [1] -0.118 | [2] 0.064 | [3] -0.027 | [4] 0.007 | [5] -0.033

— the supplement of paper PMC10849652
